# Data reported in patent publication US20070071773A1 (priority 2002, published 2007).
# Test: peptide synthesis
# Conditions: whole synthesis
sequence,measurement,setting,value
DIFKLVIDHISMKARKK (SilCR peptide),final purity (method not given),run 1,70%
same,final purity (method not given),run 2,90%

# Plain letter strings leave the end groups untold.
